Data from US10323013B2, “Inhibitors of the IRE-1/XBP-1 pathway and methods of using thereof” (H. LEE MOFFITT CANCER CENTER AND RESEARCH INSTITUTE, INC., priority 2013, dated 2019).
For at least one compound, name, drawing or mass did not settle the structure.

What was measured:
[1] = system: XBP-1s expression in Mino cells; assay: Inhibition of XBP-1s expression in Mino cells (immunoblots and densitometry); format: cell-based, human; details: 20 μM, 24 h
[2] = system: XBP-1s expression in Jeko cells; assay: Inhibition of XBP-1s expression in Jeko cells (immunoblots and densitometry); format: cell-based, human; details: 20 μM, 24 h

C=CCOC(=O)N1CCc2c(c(=O)oc3c(C=O)c(O)ccc23)C1 [Compound 21b, Allyl 7-formyl-8-hydroxy-5-oxo-4,5-dihydro-1H-chromeno[3,4-c]pyridine-3(2H)-carboxylate]
suppression of XBP-1s expression (in words) [1]: potently suppress | suppression of XBP-1s expression (in words) [2]: potently suppress
